Test results as given in PubChem BioAssay AID540256 (National Center for Advancing Translational Sciences (NCATS), 2011).
The whole screen tested about 300,000 compounds, of which about 3,700 (1.2%) were called active. The shares of active, inactive and inconclusive entries below differ from those in the screen. The call rests on the fitted dose curve; tested in HEK293 cells. Potencies beside an inconclusive call are fits to weak or partial responses and may not hold up.

assay: qHTS for Inhibitors of binding or entry into cells for Lassa Virus; conditions: Lassa virus pseudotype entry inhibition, cell reporter; series mostly up to 37.9 µM; further: nearly all actives have a fitted effect of over 50% in size
Potency means the concentration at half of the fitted maximal effect.

SMILES	Potency
CN1OCC(S(=O)(=O)c2ccccc2)C1c1ccccc1 (configuration not stated)	inactive
COc1ccc(CCNc2cc(N3CCN(C(=O)c4ccccc4F)CC3)ccc2[N+](=O)[O-])cc1OC	inconclusive: 4.47 µM [inhibitor, full curve, poor fit]
Cc1ccc(OCc2ccc(C(=O)N3CCCC3)o2)cc1C	inactive
CCN1CCN(c2ccc(S(=O)(=O)N3CCCCC3)cc2NC(=O)Cc2ccc(Cl)c(Cl)c2)CC1	inconclusive: 4.47 µM [inhibitor, partial curve, poor fit]
COc1cccc(-c2nnn(CC(C)=O)n2)c1	inactive
Cc1nn2c(=O)cc(COC(=O)c3ccc(NC(=O)COc4ccc(Cl)cc4)cc3)nc2s1	inconclusive: 3.16 µM [inhibitor, partial curve, poor fit]
COC(=O)C[C@H]1c2ccccc2C2=C(C[C@@H](C)[C@H]3C(=O)N(c4ccccc4)C(=O)[C@@H]23)N1C(=O)OC	inconclusive: 0.266 µM [inhibitor, full curve]
C=CCN1C(=O)c2ccc(C(=O)N(C)CC(=O)Nc3ccccc3C(F)(F)F)cc2C1=O	inactive
O=C1CC(N2CCOCC2)C(=O)N1CCc1ccccc1 (configuration not stated)	inactive
C/C(=N\NC(=S)Nc1ccc(C(C)C)cc1)c1ccc2c(c1)OCO2	inconclusive: 7.94 µM [inhibitor, partial curve, poor fit]
COc1ccc(OC)c(CNC(=O)c2cc3ccc4cccnc4c3[nH]2)c1	inactive
Cc1ccc(C2(C)NC(=O)N(CC(=O)NCCN3C(=O)S/C(=C\c4cccnc4)C3=O)C2=O)cc1 (configuration not stated)	inconclusive: 0.447 µM [inhibitor, full curve, poor fit]
CCn1c(C)c(C)c2cc(C(=O)Nc3cccc(Cl)c3)ccc21	inactive
CN(C(=O)c1ccc2c(c1)OCO2)C1CCS(=O)(=O)C1 (configuration not stated)	inactive
COc1cccc(CNC(=O)CCCN2C(=O)CSc3c2c(C)nn3-c2ccccc2)c1OC	inconclusive: 35.5 µM [inhibitor, single point]
CCC1C(=O)CC(c2ccc([N+](=O)[O-])cc2)NC1c1ccc([N+](=O)[O-])cc1 (configuration not stated)	inconclusive: 12.6 µM [inhibitor, partial curve, poor fit]
Cc1ccccc1NC(=O)CSc1n[nH]c(-c2ccccn2)n1	inconclusive: 35.5 µM [inhibitor, partial curve, poor fit]
O=C(NCCNC(=O)c1cc(Cl)ccc1Cl)c1cnccn1	inactive
CC(C)(C)c1ccccc1NC(=O)c1ccc(-n2cncn2)c([N+](=O)[O-])c1	inconclusive: 7.08 µM [inhibitor, partial curve, poor fit]
O=C(c1cccc(C(=O)N2CCN(c3ccccc3F)CC2)n1)N1CCN(c2ccccc2F)CC1	inconclusive: 29.1 µM [inhibitor, single point]
CSc1cccc(NS(=O)(=O)c2ccc(C(C)=O)cc2)c1	inconclusive: 35.5 µM [inhibitor, partial curve, poor fit]

Among those listed so far, three have fluorine:
SMILES	Potency
COc1ccc(CCNc2cc(N3CCN(C(=O)c4ccccc4F)CC3)ccc2[N+](=O)[O-])cc1OC	inconclusive: 4.47 µM [inhibitor, full curve, poor fit]
C=CCN1C(=O)c2ccc(C(=O)N(C)CC(=O)Nc3ccccc3C(F)(F)F)cc2C1=O	inactive
O=C(c1cccc(C(=O)N2CCN(c3ccccc3F)CC2)n1)N1CCN(c2ccccc2F)CC1	inconclusive: 29.1 µM [inhibitor, single point]

(next part)

SMILES	Potency
O=[N+]([O-])c1ccc(Cl)c(-c2ccc(/C=N/c3c(-c4ccco4)nc4ccccn34)o2)c1	inactive
O=[N+]([O-])c1ccccc1N/N=C/c1c[nH]c2ccccc12	inconclusive: 0.562 µM [activator, full curve, poor fit]
Cc1c(NC(=O)c2cc(-c3ccc(Br)cc3)on2)c(=O)n(-c2ccccc2)n1C	inconclusive: 11.2 µM [inhibitor, single point]
O=C(Nc1ccccn1)c1cc(-c2cccc(Cl)c2)nc2ccccc12	inconclusive: 35.5 µM [inhibitor, single point]
CCc1ccc(NC(=O)c2sc3nc(C)c(C(=O)Nc4ccc(C)cc4C)c(-c4ccco4)c3c2N)cc1	inconclusive: 3.98 µM [activator, full curve]
COc1ccc(Nc2sc(C(=O)c3ccccc3)c(N)c2C(=O)Nc2cc(C)ccc2C)c(OC)c1	inactive
C=CCn1c(SCC(=O)Nc2sccc2C(N)=O)nc2ccccc2c1=O	inconclusive: 0.562 µM [inhibitor, partial curve, poor fit]
COC(=O)c1cccc(NC(=S)NCCC2=CCCCC2)c1	inconclusive: 35.5 µM [inhibitor, single point]
COC(=O)C1=C(C)N(C)C(C)=C(C(=O)OC)C1c1ccncc1	inconclusive: 6.31 µM [activator, single point]
CC(C)C[C@H](NC(=O)OC(C)(C)C)C(=O)N1CCC(C(=O)O)CC1	inconclusive: 35.5 µM [activator, partial curve, poor fit]
COc1ccccc1CN1CC(C(=O)N2CCC(OC)CC2)CCC1=O (configuration not stated)	inactive
Cc1ccc(NC(=O)c2cc(S(=O)(=O)NCCC3=CCCCC3)ccc2F)cc1C	inconclusive: 8.91 µM [inhibitor, partial curve, poor fit]
Cc1cccc(-c2nc3scc(CCNS(=O)(=O)c4ccc(F)cc4C)n3n2)c1	inactive
CN(c1ccccc1)S(=O)(=O)c1ccc(C(=O)NCC2CCCO2)cc1 (configuration not stated)	inconclusive: 2.82 µM [inhibitor, full curve]
CCc1ccccc1NC(=O)CN(c1ccc(OC)cc1)S(=O)(=O)c1c(C)n[nH]c1C	inconclusive: 2.51 µM [inhibitor, partial curve, poor fit]
Cc1ccsc1C(=O)C1CCCN(Cc2cccn2-c2ccccn2)C1 (configuration not stated)	inconclusive: 11.2 µM [inhibitor, single point]
Cc1cccc(CCNC(=O)C2CCN(c3ncnc4c3nc3n4CCCCC3)CC2)c1	inconclusive: 3.55 µM [activator, full curve]
CC1CCCN(c2ccc(C(=O)NCc3cccs3)cn2)C1 (configuration not stated)	active: 10.3 µM
COC(=O)C1=C(N)Oc2cc(C)[nH]c(=O)c2C1c1ccccc1OC (configuration not stated)	inactive
CC(C)Cn1c(N2CCN(C(=O)c3cccs3)CC2)nc2ccccc21	inconclusive: 10.3 µM [inhibitor, partial curve, poor fit]
CC(NS(=O)(=O)c1ccc2[nH]c(=O)c(=O)[nH]c2c1)C(=O)O (configuration not stated)	inactive
